# No constants are given. Whether binding was seen depends on the method and setting. In cells and extracts the contact can be indirect. Some results given as binding are weak or reduced against the parent protein; the word gives no strength. Tags and fused reporters may be left off the sequences shown.
# Protein sequences, listed by entry. Tags and fused reporters are not part of them. Residues count along the entry.
# UniProt P16474, residues 43-682: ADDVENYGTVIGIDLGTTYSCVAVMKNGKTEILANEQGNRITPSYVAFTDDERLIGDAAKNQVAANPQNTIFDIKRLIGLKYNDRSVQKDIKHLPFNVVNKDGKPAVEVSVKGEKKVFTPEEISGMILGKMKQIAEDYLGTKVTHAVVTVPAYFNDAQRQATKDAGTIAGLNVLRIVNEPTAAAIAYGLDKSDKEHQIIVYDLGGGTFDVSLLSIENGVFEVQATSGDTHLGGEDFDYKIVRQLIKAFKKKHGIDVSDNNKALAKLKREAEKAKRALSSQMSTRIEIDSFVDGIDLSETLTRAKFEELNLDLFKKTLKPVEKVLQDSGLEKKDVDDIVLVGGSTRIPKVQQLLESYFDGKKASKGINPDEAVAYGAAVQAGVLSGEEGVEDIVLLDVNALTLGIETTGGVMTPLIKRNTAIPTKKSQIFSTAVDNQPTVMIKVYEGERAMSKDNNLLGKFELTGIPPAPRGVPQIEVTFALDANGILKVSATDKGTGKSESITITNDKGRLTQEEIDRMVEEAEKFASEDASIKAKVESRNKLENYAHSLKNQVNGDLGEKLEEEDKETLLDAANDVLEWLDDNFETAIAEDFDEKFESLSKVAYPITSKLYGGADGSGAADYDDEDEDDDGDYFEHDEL
# Biological target: T1, Ire1, wild type, C-terminally HA-tagged (yeast) (UniProt P32361)
# T1 sequence: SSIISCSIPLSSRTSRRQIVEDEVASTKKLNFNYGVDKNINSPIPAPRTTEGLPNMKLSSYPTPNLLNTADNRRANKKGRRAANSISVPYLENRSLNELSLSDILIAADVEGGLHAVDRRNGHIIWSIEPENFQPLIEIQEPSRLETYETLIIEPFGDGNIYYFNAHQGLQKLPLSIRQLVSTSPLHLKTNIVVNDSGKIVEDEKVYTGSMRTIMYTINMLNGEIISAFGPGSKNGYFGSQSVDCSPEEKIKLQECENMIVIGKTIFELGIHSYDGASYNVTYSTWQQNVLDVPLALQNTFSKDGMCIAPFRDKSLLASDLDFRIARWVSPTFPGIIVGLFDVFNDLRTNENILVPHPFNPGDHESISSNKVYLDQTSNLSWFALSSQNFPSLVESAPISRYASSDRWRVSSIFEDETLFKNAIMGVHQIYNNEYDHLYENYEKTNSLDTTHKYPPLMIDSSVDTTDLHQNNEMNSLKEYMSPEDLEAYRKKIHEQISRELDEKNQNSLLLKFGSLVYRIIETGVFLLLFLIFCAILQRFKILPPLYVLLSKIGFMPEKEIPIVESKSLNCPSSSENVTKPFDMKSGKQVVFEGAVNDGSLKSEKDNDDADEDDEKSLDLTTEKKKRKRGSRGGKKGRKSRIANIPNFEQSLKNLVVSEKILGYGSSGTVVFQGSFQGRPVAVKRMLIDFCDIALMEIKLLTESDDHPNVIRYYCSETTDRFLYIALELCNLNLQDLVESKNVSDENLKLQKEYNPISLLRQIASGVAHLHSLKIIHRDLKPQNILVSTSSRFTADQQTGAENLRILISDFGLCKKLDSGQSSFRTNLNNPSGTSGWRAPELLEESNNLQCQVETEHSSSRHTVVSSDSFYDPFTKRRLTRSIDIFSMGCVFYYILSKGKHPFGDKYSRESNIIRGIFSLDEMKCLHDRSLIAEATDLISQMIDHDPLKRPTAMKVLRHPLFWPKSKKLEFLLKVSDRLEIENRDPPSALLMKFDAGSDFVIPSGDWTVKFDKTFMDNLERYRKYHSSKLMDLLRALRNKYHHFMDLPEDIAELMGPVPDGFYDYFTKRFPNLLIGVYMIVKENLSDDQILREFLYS
# Assay: co-IP; HA-tagged Ire1 or Ire1^bipless precipitated from yeast lysate with anti-HA agarose beads, 2 h at 4°C, IP buffer (50 mM Tris-HCl pH 8.0, 150 mM NaCl, 1% Triton X-100); blot with anti-HA and anti-Kar2; cells untreated, treated with 5 mM DTT for 1 h, or sampled after DTT washout
substance,measurement,value
BiP (Kar2 in yeast) (from UniProt P16474 43-682),binding,binds
